According to article PMC8115599, “Mechanism of MRX inhibition by Rif2 at telomeres” (Nature Communications, 2021):
These are yes or no findings as the source states them, for the method shown. Binding can be weak; no strength is given.

The chains behind the UniProt entries cited, without tags or fusion partners. Where a name states a change or a piece, a line headed by the entry shows the natural chain unless it says otherwise.
UniProt P12753: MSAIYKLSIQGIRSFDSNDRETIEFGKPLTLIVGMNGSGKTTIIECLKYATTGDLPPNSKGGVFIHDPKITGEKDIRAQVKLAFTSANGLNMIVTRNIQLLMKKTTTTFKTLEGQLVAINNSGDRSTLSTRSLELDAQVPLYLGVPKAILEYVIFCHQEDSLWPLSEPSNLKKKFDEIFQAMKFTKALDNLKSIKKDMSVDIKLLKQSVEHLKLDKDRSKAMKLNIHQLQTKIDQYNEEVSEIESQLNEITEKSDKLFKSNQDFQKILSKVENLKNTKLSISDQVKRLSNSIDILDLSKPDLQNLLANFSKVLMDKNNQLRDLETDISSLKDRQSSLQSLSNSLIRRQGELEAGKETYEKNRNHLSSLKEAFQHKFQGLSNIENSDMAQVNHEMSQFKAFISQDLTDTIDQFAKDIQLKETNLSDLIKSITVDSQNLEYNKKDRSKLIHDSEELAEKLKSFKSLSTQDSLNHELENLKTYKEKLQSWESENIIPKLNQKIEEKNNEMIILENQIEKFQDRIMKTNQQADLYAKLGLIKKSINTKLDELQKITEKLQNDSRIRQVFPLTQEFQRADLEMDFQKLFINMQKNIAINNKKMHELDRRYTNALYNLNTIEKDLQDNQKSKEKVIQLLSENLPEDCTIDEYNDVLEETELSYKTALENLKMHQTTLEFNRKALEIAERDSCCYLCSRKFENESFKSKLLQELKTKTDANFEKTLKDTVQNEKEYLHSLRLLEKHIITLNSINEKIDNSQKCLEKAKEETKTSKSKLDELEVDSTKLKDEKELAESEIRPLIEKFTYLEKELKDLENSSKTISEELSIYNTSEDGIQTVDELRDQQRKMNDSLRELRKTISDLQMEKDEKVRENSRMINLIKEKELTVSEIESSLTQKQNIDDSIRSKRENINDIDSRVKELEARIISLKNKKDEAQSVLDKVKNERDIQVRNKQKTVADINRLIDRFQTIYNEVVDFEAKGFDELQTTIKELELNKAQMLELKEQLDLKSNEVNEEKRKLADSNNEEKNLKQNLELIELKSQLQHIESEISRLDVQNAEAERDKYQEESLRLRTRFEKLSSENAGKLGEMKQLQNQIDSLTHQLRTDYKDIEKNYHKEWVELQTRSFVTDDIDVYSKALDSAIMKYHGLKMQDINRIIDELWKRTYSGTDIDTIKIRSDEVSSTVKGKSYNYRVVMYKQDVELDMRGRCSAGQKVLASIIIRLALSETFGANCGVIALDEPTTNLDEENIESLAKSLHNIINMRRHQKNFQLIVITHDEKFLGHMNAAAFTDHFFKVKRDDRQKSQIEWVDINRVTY

Target: T1, Gal4DBD-Rif2_(1-36) (Rif2 BAT motif) (S. cerevisiae) (UniProt Q06208)
T1 sequence: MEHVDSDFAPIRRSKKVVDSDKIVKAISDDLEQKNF
Assay: two-hybrid; strain Y190, growth on synthetic glucose plates with adenine and 3-AT (25 and 50 mM); Gal4DBD-Rif2 fragments against pACT2-RAD50 and its derivatives, Rap1 366-827 or Mre11; WT cells, also cells lacking Mre11 and Xrs2 or the endogenous Rad50

| Substance | binding |
| --- | --- |
| mutant full-length Rad50, mutation at position N97 (from UniProt P12753) | binds |
| mutant full-length Rad50, mutation at position Q79 (from UniProt P12753) | binds |
| mutant full-length Rad50, mutation at position Q115 (from UniProt P12753) | binds |

Results, then the substance that gave them:

| binding | Substance |
| --- | --- |
| no binding | mutant full-length Rad50, mutation at position I93 (from UniProt P12753) |
| no binding | mutant full-length Rad50, mutation at position K6 (from UniProt P12753) |
| no binding | mutant full-length Rad50, mutation at position K81 (from UniProt P12753) |
